From article doi:10.1101/708164
These are yes or no findings as the source states them, for the method shown. For some assays here: In cells and extracts the contact can be indirect. Some results given as binding are weak or reduced against the parent protein; the word gives no strength. For some assays here: Sequences can lack the tags named with a protein.

Sequences of proteins named here, by UniProt entry; tags and fusion partners are left off. A change or cut given only in a name is not applied to a line headed by its entry.
UniProt O85040: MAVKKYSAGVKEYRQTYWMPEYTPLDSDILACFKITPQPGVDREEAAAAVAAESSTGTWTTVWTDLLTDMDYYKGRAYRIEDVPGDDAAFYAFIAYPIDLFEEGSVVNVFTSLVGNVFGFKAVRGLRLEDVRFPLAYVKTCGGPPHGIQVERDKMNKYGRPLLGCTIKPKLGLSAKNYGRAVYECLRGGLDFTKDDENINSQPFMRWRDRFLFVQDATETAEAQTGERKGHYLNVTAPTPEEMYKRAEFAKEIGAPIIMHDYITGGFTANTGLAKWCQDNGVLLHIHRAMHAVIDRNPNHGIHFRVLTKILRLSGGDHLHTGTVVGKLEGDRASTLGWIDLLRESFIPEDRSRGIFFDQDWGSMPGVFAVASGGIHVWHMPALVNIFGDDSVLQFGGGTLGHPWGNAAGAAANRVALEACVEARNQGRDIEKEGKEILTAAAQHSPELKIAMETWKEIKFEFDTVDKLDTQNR
UniProt P45686: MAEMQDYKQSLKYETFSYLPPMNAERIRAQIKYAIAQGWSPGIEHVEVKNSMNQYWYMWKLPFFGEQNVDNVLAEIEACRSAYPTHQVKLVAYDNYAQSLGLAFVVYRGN
UniProt O85041: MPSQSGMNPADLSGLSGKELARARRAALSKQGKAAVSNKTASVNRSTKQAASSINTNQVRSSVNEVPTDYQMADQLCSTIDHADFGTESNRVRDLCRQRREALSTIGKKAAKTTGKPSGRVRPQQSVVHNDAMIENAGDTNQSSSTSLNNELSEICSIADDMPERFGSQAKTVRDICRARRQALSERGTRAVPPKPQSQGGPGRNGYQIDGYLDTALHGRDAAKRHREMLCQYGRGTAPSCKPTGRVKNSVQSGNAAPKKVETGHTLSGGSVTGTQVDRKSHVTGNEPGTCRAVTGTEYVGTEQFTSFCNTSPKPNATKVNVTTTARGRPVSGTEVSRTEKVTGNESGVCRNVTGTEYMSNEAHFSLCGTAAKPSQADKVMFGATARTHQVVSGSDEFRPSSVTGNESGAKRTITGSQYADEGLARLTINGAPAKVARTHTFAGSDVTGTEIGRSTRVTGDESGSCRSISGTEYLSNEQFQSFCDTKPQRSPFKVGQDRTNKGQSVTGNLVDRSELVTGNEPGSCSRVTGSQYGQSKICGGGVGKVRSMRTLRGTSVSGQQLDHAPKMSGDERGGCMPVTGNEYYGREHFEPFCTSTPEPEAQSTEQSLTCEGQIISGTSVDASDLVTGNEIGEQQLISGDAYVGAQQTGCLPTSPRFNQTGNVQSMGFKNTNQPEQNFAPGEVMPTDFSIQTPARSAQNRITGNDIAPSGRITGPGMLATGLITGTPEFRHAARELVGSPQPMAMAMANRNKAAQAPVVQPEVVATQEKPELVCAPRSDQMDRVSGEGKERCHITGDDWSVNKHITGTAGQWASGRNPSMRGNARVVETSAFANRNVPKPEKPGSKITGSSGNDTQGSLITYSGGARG

Key:
[1] = target: T1, Rubisco (H. neapolitanus Form IA, L8S8 holoenzyme of CbbL and CbbS) (H. neapolitanus) (UniProt O85040+P45686); test: pull-down
[2] = target: T1, Rubisco (H. neapolitanus Form IA, L8S8 holoenzyme of CbbL and CbbS) (H. neapolitanus); test: crystal structure

Row | binding [1] | binding [2] | Molecule
1 | binds | – | CsoS2 (H. neapolitanus), full length, 6xHis-tagged (from UniProt O85041 1-869)
2 | – | binds | GRDLARARREALSQQGKAAV [N*-peptide (as bound in the crystal structure of the Rubisco-N* fusion)]
